Measurements from patent publication US8530465B2, “1, 2-disubstituted amido-anthraquinone derivatives, preparation method and application thereof” (National Defense Medical Center, priority 2010, dated 2013).
Some entries share one result that the patent states for a list of compounds.

Tested on: H1299
Assay: MTT assay, PhTERT-SEAP (H1299)
Assay type: cell-based, human
Details: for cell survival rate: low concentration (1 μM), SEAP and MTT assays; for cell toxicity activity: high concentrations (100 μM, 10 μM)
Experimental: Further, cells were subjected to MTT assay to compare the relative toxicity or effect of each compound on cell proliferation and activity.
The above-described cells are cultured in a 96-well plate, to which was added with 25 μl MTT solution, and cultured in a 37° C. carbon dioxide incubator for 4 hours. Then, 100 μl Lysis buffer is added and incubated in a 37° C. carbon dioxide incubator overnight. An ELISA reader (Bio-Rad Model 450) is used to read optical density (O.D.) at 550 nm.

Row | SMILES | cell survival rate | cell toxicity activity
1 | CC(Cl)C(=O)Nc1c(NC(=O)CCl)ccc2c1C(=O)c1ccccc1C2=O (stereo not shown) [CC-06, 1-[(2-chloropropanyl)amido]-2-(chloroacetamido)-anthraquinone] | lower than 50% | –
2 | O=C(CCl)Nc1ccc2c(c1NC(=O)c1cccc(F)c1)C(=O)c1ccccc1C2=O [CC-14, 1-(3-fluorobenzamido)-2-(chloroacetamido)-anthraquinone] | lower than 50% | –
3 | O=C(CCl)Nc1ccc2c(c1NC(=O)c1ccc(F)cc1)C(=O)c1ccccc1C2=O [CC-15, 1-(4-fluorobenzamido)-2-(chloroacetamido)-anthraquinone] | lower than 50% | –
4 | O=C(CCl)Nc1ccc2c(c1NC(=O)c1cccs1)C(=O)c1ccccc1C2=O [CC-28, 1-[(2-thiophenecarbonyl)amino]-2-(chloroacetamido)-anthraquinone] | lower than 50% | –
5 | Cc1ccc(C(=O)Nc2c(NC(=O)CN(C)CC3OCCO3)ccc3c2C(=O)c2ccccc2C3=O)cc1 [CC-36, 1-(4-methylbenzamido)-2-[2-[(1,3-dioxolan-2-ylmethyl)(methyl)amino]acetylamino]-anthraquinone] | – | lower cell toxicity activity
6 | Cc1ccc(C(=O)Nc2c(NC(=O)CN(C)CCc3ccccn3)ccc3c2C(=O)c2ccccc2C3=O)cc1 [CC-37, 4-methyl-N-(2-(2-(methyl(2-(pyridin-2-yl)ethyl)amino)acetamido)-9,10-dioxo-9,10-dihydroanthracen-1-yl)benzamide] | – | lower cell toxicity activity
7 | Cc1ccc(C(=O)Nc2c(NC(=O)CN3CCCC3)ccc3c2C(=O)c2ccccc2C3=O)cc1 [CC-38, 1-(4-methylbenzamido)-2-[2-(tetrahydro-1H-1-pyrrolyl)acetylamino]-anthra quinone] | – | lower cell toxicity activity
8 | Cc1ccc(C(=O)Nc2c(NC(=O)CN3CCCCC3)ccc3c2C(=O)c2ccccc2C3=O)cc1 [CC-39, N-(9,10-dioxo-2-(2-(piperidin-1-yl)acetamido)-9,10-dihydroanthracen-1-yl)-4-methylbenzamide] | – | lower cell toxicity activity
9 | Cc1ccc(C(=O)Nc2c(NC(=O)CN3CCOCC3)ccc3c2C(=O)c2ccccc2C3=O)cc1 [CC-41, 1-(4-methylbenzamido)-2-[(2-morpholinoacetyl)amino]-anthraquinone] | – | lower cell toxicity activity
10 | Cc1ccc(C(=O)Nc2c(NC(=O)CN3CCSCC3)ccc3c2C(=O)c2ccccc2C3=O)cc1 [CC-42, 1-(4-methylbenzamido)-2-[2-(1,4-thiazinan-4-yl)acetylamino]-anthraquinone] | – | lower cell toxicity activity
11 | Cc1ccc(C(=O)Nc2c(NC(=O)CN3CCN(C)CC3)ccc3c2C(=O)c2ccccc2C3=O)cc1 [CC-43, 1-(4-methylbenzamido)-2-[2-(4-methylpiperazino)acetylamino]-anthraquinone] | – | lower cell toxicity activity
12 | Cc1ccc(C(=O)Nc2c(NC(=O)CN3CCN(CCO)CC3)ccc3c2C(=O)c2ccccc2C3=O)cc1 [CC-44, 1-(4-methylbenzamido)-2-[2-(4-(2-hydroxyethyl)piperazino]acetylamino]-anthraquinone] | – | lower cell toxicity activity
13 | Cc1ccc(C(=O)Nc2c(NC(=O)CN3CCN(c4ncccn4)CC3)ccc3c2C(=O)c2ccccc2C3=O)cc1 [CC-50, 1-(4-methylbenzamido)-2-[2-[4-(2-pyrimidinyl)piperazino]acetylamino]-anthraquinone] | – | lower cell toxicity activity
